Source: PubChem BioAssay AID202 (DTP/NCI, 2004)
The list shows only some results of the screen, not a fair sample: it is rich in T/C values a quarter to a half above the control, in often repeated tests (any T/C) and in doses without a T/C. Further doses and runs are listed elsewhere. T/C is the treated group as % of the vehicle group. Schedules are NCI's codes, taken here to give the interval after Q, in days (D) or hours (H), and the number of doses after X. Some T/C values carry the count of animals alive at the toxicity check (mostly the fifth day); without a count, all were alive then. Some doses were run more than once; their values stand side by side, smallest first. Some values lie below zero, which means that the treated tumours became smaller. Some doses have a count of surviving animals in place of a T/C: the source holds a T/C of zero for them, seemingly a mark for toxic or unscored doses. Counts of survivors are from the toxicity check (mostly the fifth day) where no day follows; animals may have died later. *1 amine or outer side, *2 acyl side, *3 side chain or, on linkers, in order; H or OH if unused. Where a SMILES comes first, the peptide text is derived from it. Bridges are numbered along the chain shown (N, C = ends). Roman numbers before positions name the chains, in order. [ ]: non-standard residue; d: D form. Actinocin(9to1) = Cc1c2oc3c(C)ccc(C(=O)[*:1])c3nc-2c(C(=O)[*:2])c(N)c1=O; aThr = C[C@H](O)[C@H](N)C(=O)O; NMeV = CN[C@H](C(=O)O)C(C)C; Sar = CNCC(=O)O

System: HT29 xenograft, nude mice, s.c., tumor weight T/C%
Assay: NCI In Vivo Anticancer Drug Screen. Data for tumor model HT29;CX-1 Human Adenocarcinoma (MER+) (subcutaneous) in NU/NU Swiss (nude) mice
Conditions: T/C endpoint: optimum tumor weight change, higher T/C = larger tumour
Description: The antitumor activity of compounds was measured in mice bearing transplantable tumors. Survival or tumor size were measured and the results are expressed as the measurement made in the treated group (T) divided by the measurement made in the vehicle treated control group (C). The tumor model used in this assay is HT29;CX-1 Human Adenocarcinoma (MER+) (subcutaneous) in NU/NU Swiss (nude) mice

[1] = dose: 200.0 mg/kg/injection, schedule: Q04DX003 (ip), vehicle: saline
[2] = dose: 120.0 mg/kg/injection, schedule: Q04DX003 (ip), vehicle: saline

Question: With `C[n+]1c(-c2cccc3ccccc23)c2cc(N)ccc2c2ccccc21` as the compound, how does the survivor count (dose: 3.0 mg/kg/injection, schedule: Q04DX003 (ip), vehicle: saline) read?
Answer: 3 of 5 on day 43

Question: What about the survivor count (dose: 6.0 mg/kg/injection, schedule: Q04DX003 (ip), vehicle: saline) of the same compound?
Answer: 3 of 5 on day 43

Question: And the survivor count (dose: 12.0 mg/kg/injection, schedule: Q04DX003 (ip), vehicle: saline)?
Answer: 0 of 5 on day 43

Question: For `CN(C)c1nc(N(C)C)nc(N(C)C)n1`, which survivor count (dose: 240.0 mg/kg/injection, schedule: Q01DX005 (ip), vehicle: Klucel (hydroxypropylcellulose) (HPC)) is on record?
Answer: 1 of 5

Question: What about the survivor count (dose: 480.0 mg/kg/injection, schedule: Q07DX005 (ip), vehicle: Klucel (hydroxypropylcellulose) (HPC)) of the same compound?
Answer: 1 of 5 and 3 of 5

Question: For `N=C(N)Sc1ccccn1`, which survivor count (dose: 400.0 mg/kg/injection, schedule: Q04DX003 (ip), vehicle: saline) is on record?
Answer: 2 of 5 on day 35

Question: Which survivor count (dose: 600.0 micrograms/kg/injection, schedule: Q04DX003 (ip), vehicle: saline) does the source give for `Cc1c2oc3c(C)ccc(C(=O)N[C@@H]4C(=O)N[C@H](C(C)C)C(=O)N5CCC[C@H]5C(=O)N(C)CC(=O)N(C)[C@@H](C(C)C)C(=O)O[C@H]4C)c3nc-2c(C(=O)N[C@@H]2C(=O)N[C@H](C(C)C)C(=O)N3CCC[C@H]3C(=O)N(C)CC(=O)N(C)[C@@H](C(C)C)C(=O)O[C@H]2C)c(N)c1=O` (I: [aThr][dV]P[Sar][NMeV] / II: [aThr][dV]P[Sar][NMeV]; ester I:1-I:C, II:1-II:C; linker I:N-II:N via Actinocin(9to1)) here?
Answer: 3 of 5 on day 37

Question: How did the survivor count (dose: 4.0 mg/kg/injection, schedule: Q04DX003 (ip), vehicle: water) turn out when `COc1cccc2c1C(=O)c1c(O)c3c(c(O)c1C2=O)C[C@@](O)(C(=O)CO)C[C@@H]3OC1CC(N)C(O)C(C)O1` (stereo partly drawn) was run?
Answer: 2 of 5 on day 36 and 2 of 5 on day 38

Question: And the survivor count (dose: 8.0 mg/kg/injection, schedule: Q04DX003 (ip), vehicle: water)?
Answer: 0 of 5 on day 36 and 0 of 5 on day 38

Question: How did the survivor count (dose: 100.0 mg/kg/injection, schedule: Q04DX003 (ip), vehicle: Klucel (hydroxypropylcellulose) (HPC)) turn out when `CN(C)N=Nc1ccccc1` was run?
Answer: 1 of 5 on day 40

Question: And the survivor count (dose: 200.0 mg/kg/injection, schedule: Q04DX003 (ip), vehicle: Klucel (hydroxypropylcellulose) (HPC))?
Answer: 0 of 5 on day 40

Question: With `O=Cc1ccc(O)c(O)c1` as the compound, how does the survivor count (dose: 200.0 mg/kg/injection, schedule: Q04DX003 (ip), vehicle: saline with Tween-80) read?
Answer: 3 of 5 on day 35

Question: What about the survivor count (dose: 400.0 mg/kg/injection, schedule: Q04DX003 (ip), vehicle: saline with Tween-80) of the same compound?
Answer: 2 of 5 on day 35

Question: For `NC(=S)N/N=C/c1ccc(O)cn1`, which survivor count (dose: 1200.0 mg/kg/injection, schedule: Q04DX003 (ip), vehicle: saline with Tween-80) is on record?
Answer: 3 of 5 on day 42

Question: How did the T/C (dose: 100.0 mg/kg/injection, schedule: Q04DX003 (ip), vehicle: saline, evaluated on day 35) turn out when `Oc1ccc(O)cc1` was run?
Answer: 148 % of control

Question: What about the survivor count [1] of the same compound?
Answer: 0 of 5 on day 37

Question: How did the survivor count [2] turn out when `CCCCNCCCNCCCNC(=O)c1csc(-c2csc(CCNC(=O)C(NC(=O)C(C)C(O)C(C)NC(=O)C(NC(=O)c3nc(C(CC(N)=O)NCC(N)C(N)=O)nc(N)c3C)C(OC3OC(CO)C(O)C(O)C3OC3OC(CO)C(O)C(OC(N)=O)C3O)c3cnc[nH]3)C(C)O)n2)n1` (stereo not drawn) was run?
Answer: 1 of 5 on day 36

Question: And the survivor count (dose: 120.0 mg/kg/injection, schedule: Q04DX004 (ip), vehicle: saline)?
Answer: 0 of 5 on day 35

Question: Which survivor count (dose: 8.0 mg/kg/injection, schedule: Q04DX003 (ip), vehicle: suspension in saline) does the source give for `N[C@@H](Cc1ccc(N(CCCl)CCCl)cc1)C(=O)O` here?
Answer: 3 of 5 on day 42

Question: And the survivor count (dose: 16.0 mg/kg/injection, schedule: Q04DX003 (ip), vehicle: suspension in saline)?
Answer: 0 of 5 on day 42

Question: What about the survivor count (dose: 32.0 mg/kg/injection, schedule: Q04DX003 (ip), vehicle: suspension in saline) of the same compound?
Answer: 0 of 5 on day 42

Question: What does the source list for `CC[C@](O)(C(=O)O)c1cc2n(c(=O)c1CO)Cc1cc3ccccc3nc1-2`?
Answer: survivor count (dose: 18.0 mg/kg/injection, schedule: Q04DX003 (ip), vehicle: saline): 3 of 5 on day 40; survivor count (dose: 36.0 mg/kg/injection, schedule: Q04DX003 (ip), vehicle: saline): 3 of 5 on day 40; survivor count (dose: 72.0 mg/kg/injection, schedule: Q04DX003 (ip), vehicle: saline): 1 of 5 on day 40

Question: How did the survivor count (dose: 150.0 mg/kg/injection, schedule: Q04DX003 (ip), vehicle: saline with Tween-80) turn out when `C[C@]12CC[C@@H]3c4ccc(OC(=O)Cc5ccc(N(CCCl)CCCl)cc5)cc4CC[C@H]3[C@@H]1CC[C@@H]2OC(=O)Cc1ccc(N(CCCl)CCCl)cc1` was run?
Answer: 3 of 5 on day 42

Question: What about the survivor count (dose: 300.0 mg/kg/injection, schedule: Q04DX003 (ip), vehicle: saline with Tween-80) of the same compound?
Answer: 0 of 5 on day 39

Question: And the survivor count (dose: 600.0 mg/kg/injection, schedule: Q04DX003 (ip), vehicle: saline with Tween-80)?
Answer: 2 of 5 on day 42, 3 of 5 on day 36, 3 of 5 on day 39

Question: How did the survivor count (dose: 50.0 mg/kg/injection, schedule: Q04DX003 (ip), vehicle: saline) turn out when `COc1cccc2c1C(=O)c1c(O)c3c(c(O)c1C2=O)C[C@@](O)(/C(C)=N\O)C[C@@H]3OC1CC(N)C(O)C(C)O1` (stereo partly drawn) was run?
Answer: 0 of 5 on day 36

Question: What does the source list for `CN1N=C(N)c2cn(C3OC(COP(=O)(O)O)C(O)C3O)c3ncnc1c23` (stereo not drawn)?
Answer: survivor count (dose: 100.0 mg/kg/injection, schedule: Q04DX003 (ip), vehicle: water): 1 of 5 on day 35; survivor count (dose: 200.0 mg/kg/injection, schedule: Q04DX003 (ip), vehicle: water): 0 of 5 on day 35

Question: With `CNC(=O)ON(C(C)=O)C(=O)NC` as the compound, how does the survivor count [1] read?
Answer: 0 of 5 on day 39

Question: Which T/C (dose: 7.5 mg/kg/injection, schedule: Q04DX003 (ip), vehicle: saline, evaluated on day 34) does the source give for `Cc1c(N)nc(C(CC(N)=O)NCC(N)C(N)=O)nc1C(=O)NC(C(=O)NC(C)C(O)C(C)C(=O)NC(C(=O)NCCc1nc(-c2nc(C(=O)NCCCNC(C)c3ccccc3)cs2)cs1)C(C)O)C(OC1OC(CO)C(O)C(O)C1OC1OC(CO)C(O)C(OC(N)=O)C1O)c1cnc[nH]1` (stereo not drawn) here?
Answer: 39, 40, 40 % of control [4 of 5 alive on day 36]

Question: What about the T/C (dose: 7.5 mg/kg/injection, schedule: Q04DX003 (ip), vehicle: saline, evaluated on day 36) of the same compound?
Answer: 65 % of control

Question: And the T/C (dose: 7.5 mg/kg/injection, schedule: Q04DX003 (ip), vehicle: saline, evaluated on day 40)?
Answer: 32 % of control

Question: And the T/C (dose: 15.0 mg/kg/injection, schedule: Q04DX003 (ip), vehicle: saline, evaluated on day 34)?
Answer: 5, 26, 41 [4 of 5 alive on day 36], 42 % of control [4 of 5 alive on day 36]

Question: And the T/C (dose: 15.0 mg/kg/injection, schedule: Q04DX003 (ip), vehicle: saline, evaluated on day 36)?
Answer: 67 % of control

Question: What about the T/C (dose: 15.0 mg/kg/injection, schedule: Q04DX003 (ip), vehicle: saline, evaluated on day 40) of the same compound?
Answer: 3 [4 of 5 alive on day 40] and 23 % of control [4 of 5 alive on day 42]

Question: What about the T/C (dose: 30.0 mg/kg/injection, schedule: Q04DX003 (ip), vehicle: saline, evaluated on day 34) of the same compound?
Answer: -1, 25, 36 % of control

Question: And the T/C (dose: 30.0 mg/kg/injection, schedule: Q04DX003 (ip), vehicle: saline, evaluated on day 36)?
Answer: 33 % of control

Question: And the T/C (dose: 30.0 mg/kg/injection, schedule: Q04DX003 (ip), vehicle: saline, evaluated on day 40)?
Answer: -10 and 2 % of control [4 of 5 alive on day 42]

Question: What about the survivor count (dose: 30.0 mg/kg/injection, schedule: Q04DX003 (ip), vehicle: saline) of the same compound?
Answer: 3 of 5 on day 36

Question: What about the T/C (dose: 60.0 mg/kg/injection, schedule: Q04DX003 (ip), vehicle: saline, evaluated on day 34) of the same compound?
Answer: 6 % of control [4 of 5 alive on day 36]

Question: And the survivor count (dose: 60.0 mg/kg/injection, schedule: Q04DX003 (ip), vehicle: saline)?
Answer: 0 of 5 on day 36, 0 of 6 on day 36, 1 of 5 on day 36, 2 of 5 on day 40, 2 of 5 on day 42, 3 of 5 on day 36

Question: And the survivor count [2]?
Answer: 0 of 5 on day 36 and 0 of 5 on day 40

Question: What does the source list for `COc1cccc2c1C(=O)c1c(O)c3c(c(O)c1C2=O)C[C@@](O)(C(=O)CO)C[C@@H]3OC1CC(N)C(OC)C(C)O1` (stereo partly drawn)?
Answer: survivor count (dose: 3.13 mg/kg/injection, schedule: Q04DX003 (ip), vehicle: saline): 0 of 5 on day 38; survivor count (dose: 6.25 mg/kg/injection, schedule: Q04DX003 (ip), vehicle: saline): 0 of 5 on day 38; survivor count (dose: 12.5 mg/kg/injection, schedule: Q04DX003 (ip), vehicle: saline): 0 of 5 on day 38

Question: How did the survivor count (dose: 1600.0 mg/kg/injection, schedule: Q04DX003 (ip), vehicle: saline) turn out when `CNC=O` was run?
Answer: 0 of 5 on day 35
